Measured values reported in article PMC8621594.
No constants are given. Whether binding was seen depends on the method and setting.

T1: Ruconest® (conestat alfa), human recombinant C1 inhibitor purified from the milk of transgenic rabbits (human), P05155
T1 chain: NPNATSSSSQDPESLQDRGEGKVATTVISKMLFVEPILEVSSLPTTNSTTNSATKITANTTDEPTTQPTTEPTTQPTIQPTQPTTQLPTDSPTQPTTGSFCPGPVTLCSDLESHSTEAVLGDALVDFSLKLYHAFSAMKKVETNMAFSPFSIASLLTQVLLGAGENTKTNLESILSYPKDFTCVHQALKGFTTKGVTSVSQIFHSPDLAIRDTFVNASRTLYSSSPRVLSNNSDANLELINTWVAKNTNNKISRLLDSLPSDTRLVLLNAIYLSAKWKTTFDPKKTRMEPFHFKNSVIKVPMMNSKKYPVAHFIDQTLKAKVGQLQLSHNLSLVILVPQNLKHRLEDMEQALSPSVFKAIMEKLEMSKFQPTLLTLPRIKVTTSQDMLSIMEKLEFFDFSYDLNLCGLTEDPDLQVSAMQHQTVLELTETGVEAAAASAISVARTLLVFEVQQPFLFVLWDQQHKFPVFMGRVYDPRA

T2: Berinert®, plasma-derived human C1 inhibitor (human), P05155
T2 chain: T1 chain

B1: Ruconest^® (conestat alfa), human recombinant C1 inhibitor purified from the milk of transgenic rabbits, P05155 23-500 (protein)
chain: T1 chain
modifications: here or on the partner: glycosylated; 8.0 ± 0.6 mol Neu5Ac/mol protein; glycosylated; 8.0 ± 0.6 mol Neu5Ac/mol protein
B2: Berinert^®, plasma-derived human C1 inhibitor, P05155 23-500 (protein)
chain: T1 chain
modifications: here or on the partner: glycosylated; 35.0 ± 1.0 mol Neu5Ac/mol protein; glycosylated; 35.0 ± 1.0 mol Neu5Ac/mol protein

What was measured:
[1] = biological target: T1, Ruconest® (conestat alfa), human …; experiment: SEC; TSKgel G3000SWXL, 0.5 mL/min, PBS with acetonitrile to 5%, pH 7.4, UV at 214 nm; relative content of monomer, fragments and aggregates; both purified; details: remark: other sources report otherwise
[2] = biological target: T2, Berinert®, plasma-derived human C1 …; experiment: as above; details: remark: other sources report otherwise

Binder | binding [1] | binding [2]
B1 | no binding | 
B2 |  | no binding
